Reference: PubChem BioAssay AID1458 (National Center for Advancing Translational Sciences (NCATS), 2008)
Screen size: about 210,000 compounds; about 5,900 (2.8%) were called active. About 5% were inconclusive and are not listed. Calls follow the shape of the dose curve; as a rule, active = well fitted activation curve with a large enough effect; inconclusive = small, poorly fitted or top-dose-only effect; inactive = no such curve, though single readings can be large or run the other way. Only a part is listed here, and it is no random draw. Entries without a call were filed so in the source.

Experiment: qHTS Assay for Enhancers of SMN2 Splice Variant Expression; also: nearly all actives have a fitted effect of over 55% in size; as to activity change, positive = activation: % of control where 0% means no effect
Details: HEK293 SMN2-luciferase splicing reporter, luminescence, 30-36 h; activity change, positive = activation: at 46.1 µM (top of the series) unless noted
Outline: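 HEK293 cells carry an SMN2 […]–luciferase reporter in which exon 7 inclusion puts luciferase in frame. Cells were plated 10-12 h before compound addition, then incubated 30-36 h at 37C. ONE-Glo luminescence was read; sodium butyrate at 4.5 mM final served as control.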
Potency is read from the fitted curve at half-maximal effect.

Compound	activity change, positive = activation	Potency
CN(C)CCCN1C(=O)c2cccc3c([N+](=O)[O-])ccc(c23)C1=O	inactive: -36.2%	
Clc1ccc(N/N=C/c2cccs2)nn1	92.9%	
O=C(CCCc1ccccc1)N1CCN(c2ccc([N+](=O)[O-])cc2)CC1	-33.2%	
Clc1ccc(-n2nnnc2CN2CCOCC2)cc1	32%	
Nn1cnc2sc3c(c2c1=O)CCC3	35.4%	
Cc1ccnc2nc(C(=O)Nc3nnc(CC(C)C)s3)nn12	-32.6%	
CCC(=O)c1ccc(OCc2ccc(C#N)cc2)cc1	35.7%	
O=C(N1CCCCC1)N1CCCN(C(=O)N2CCCCC2)CC1	35.9%	
CCOC(=O)N1CCC(NC(=O)c2cccnc2SC)CC1	30.8%	
COCC(C)NC(=O)c1noc2c1CCc1cc(OC)ccc1-2 (stereo unspecified)		active: 10 µM
O=C(Nc1ccc(S(=O)(=O)N2CCCC2)cc1)c1ccc(OCC2CCCO2)cc1 (stereo unspecified)	inactive: -76.1%	
O=C1c2ccccc2C(=O)N1c1ncccn1	39.5%	
CC(=O)c1sc(Nc2nc3ccc(F)cc3s2)nc1C		active: 12.6 µM
Cc1ccc(O)c(C(=O)CC(=O)c2cccc(F)c2)c1		active: 35.5 µM
Cc1ccc(O)c(NC(=O)c2noc3c2CCc2ccccc2-3)c1	inactive: -50.6%	
CCSc1n[nH]c(=S)s1	47.6%	
COC(=O)c1ccc(CSc2nnc(C)n2N)o1	-7.68%	
Cc1nc(CC(=O)Nc2ccc(C(N)=O)cc2)cs1	inactive: -26%	
Cn1c(=O)cc(OCCCC(=O)NCc2ccco2)c2ccccc21		active: 10 µM

Compound	activity change, positive = activation	Potency
COC(=O)C1CCN(C(=O)COc2cc3sc(C)nc3c3sccc23)CC1	47.9%	
CCCCOc1ccc(/C=C/C(=O)OCC(=O)N2CC(=O)Nc3ccccc32)cc1OCC	inactive: -60.5%	
Cc1ccc(NC(=O)c2oc3ccccc3c2NC(=O)C2CCCCC2)cc1	37.6%	
COc1ccc(CCNC(=O)CCc2c(C)c3ccc(O)c(C)c3oc2=O)cc1	45.8%	
Cc1cccc(-n2ncc3c(N(CCO)CCO)ncnc32)c1		active: 14.1 µM
O=C(NC(=S)Nc1ccccc1O)c1ccccc1Cl		active: 12.6 µM
CCCCCCSC1=C(C#N)C(c2ccc(O)cc2)CC(=O)N1 (stereo unspecified)	20.8%	
O=[N+]([O-])c1ccccc1S(=O)(=O)NCCc1ccncc1	-38.7%	
CN1/C(=C\C=N\NC(=O)c2ccccc2Br)C(C)(C)c2ccccc21	-71.6%	
CCc1ccc(C(=O)NNC(=O)OC)cc1	-42%	
NC(=O)C1CCCN(Cc2ccc(Cl)cc2)C1 (stereo unspecified)	48.5%	
COc1cccc(NC(=O)Cn2c(=O)n(Cc3ccc(C(=O)NCc4ccc(C)cc4)cc3)c(=O)c3ccccc32)c1	inactive: -10.9%	
CCOc1cc(C2C(C(=O)N3CCCCC3)=C(C)NC3=C2C(=O)CCC3)cc(Br)c1O (stereo unspecified)	61.6%	
Cc1nn(-c2ccccn2)c2nc(-c3cccs3)cc(C(=O)NCc3ccco3)c12	37%	
CCN(CC)C(=O)CCCSc1nnc(Nc2ccccc2F)s1	72.6%	
C/C(=N\O)C(=O)C(CN1CCCCC1)CN1CCCCC1	24.9%	
CCn1c(=NC(=O)CSC(C)=O)sc2cc(OC)ccc21	-33.2%	
Cc1ccc(NC2CC(=O)N(Cc3ccccc3)C2=O)cc1 (stereo unspecified)	49.7%	
CCNC(=O)C1CC(=O)N(c2ccc(Br)cc2)C1 (stereo unspecified)	20.9%	

Compound	activity change, positive = activation	Potency
COc1ccc(N(C(=O)c2ccc(C(C)(C)C)cc2)S(=O)(=O)c2ccc(Cl)cc2)cc1	inactive: -35.7%	
CCNc1nc(-c2cc3ccccc3o2)cs1		active: 3.16 µM
Fc1ccc(C2CC(c3ccco3)=NN2c2ccccc2)cc1 (stereo unspecified)	-31.9%	
COc1ccc(/C=C/C(=O)N2CCN(c3ccccn3)CC2)c2ccccc12	inactive: -32.7%	
CCCSc1nn2c(=O)c3ccccc3nc2s1		active: 35.5 µM
CCCS(=O)(=O)c1cn2cccc(N)c2c1S(=O)(=O)CCC	39.2%	
Cc1ccc2c(c1)nnn2C1CCN(S(=O)(=O)c2ccc(C(=O)N3CC(C)CC(C)C3)cc2)CC1 (stereo unspecified)	-75.5%	
O=C(/C=C/c1ccc(-c2ccccc2)o1)c1ccccc1	79.2%	
COc1ccc(-n2c(C)nc3c(cnn3-c3ccc(Cl)cc3)c2=O)cc1	inactive: -50.3%	
O=C(CSc1nc2ccccc2o1)N1c2ccccc2Sc2ccccc21	-46.5%	
COCCCNC(=O)c1c(N)n(/N=C/c2cccnc2)c2nc3ccccc3nc12	32.4%	
COc1ccc(CNC(=O)CSc2nnc(Cn3nnc4ccccc43)n2C)cc1	27.2%	
O=C(Nc1nccs1)c1ccc(Br)o1		active: 11.2 µM
C/C(=N/NC(=O)CSc1ccccn1)c1ccc([N+](=O)[O-])cc1	-4.05%	
COc1cc(C2C(C#N)=C(N)Oc3cc(C)oc(=O)c32)ccc1OC(=O)N1CCOCC1 (stereo unspecified)	27.1%	
Cc1cc(OCCn2cnc3ccccc3c2=O)ccc1[N+](=O)[O-]	inactive: -19.5%	
COc1ccc(C2CC(=O)c3c([nH]c(C(=O)OCc4ccccc4)c3C)C2)cc1OC (stereo unspecified)	inactive: -1.45%	
CC(=O)Nc1cccc(NC(=O)C2CC3CCC2C3)c1 (stereo unspecified)	48%	

Full records as entered above:
`COc1ccc(N(C(=O)c2ccc(C(C)(C)C)cc2)S(=O)(=O)c2ccc(Cl)cc2)cc1` as listed: activity change, positive = activation: inactive: -35.7%
`O=C(CSc1nc2ccccc2o1)N1c2ccccc2Sc2ccccc21` as listed: activity change, positive = activation: -46.5%
